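Genome-wide siRNA knockdown in TC32 Ewing sarcoma cells, comparing luciferase light from an NR0B1-promoter reporter with a CMV-promoter reporter 48 hours after transfection.
Each siRNA was applied at 20 nM.
A z-score of the log NR0B1-over-CMV signal, less the median of siRNAs with the same seed; more negative means a stronger specific loss of the NR0B1 reporter.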

This is part of the screen; most of the strongest results are not listed here.
Sequences are the guide (antisense) strand, without overhang.

| siRNA | target gene | seed-corrected z-score |
|---|---|---|
| `UCAGCGACCAGGAAGUUGU` | GPR62 | 0.6947 |
| `AAAGAUACCACCAAAGUCC` | PRADC1 | -0.3844 |
| `UGUUCUUUUACUACAACCG` | LINC01114 | -0.3826 |
| `UGAGUACAGAGUCUUCUUC` | CHAF1A | -0.1634 |
| `UUACUAUACCGGGUUAUUG` | ANKRD62 | 0.6412 |
| `UACGUAAUAGCUGGUGUGG` | LOXHD1 | 1.459 |
| `UUCGUCUGACCAUUCGCUC` | SPDYE4 | -0.7445 |
| `AAUGUUGUUAGACUCAAGG` | TBCE | 0.2699 |
| `UCAUAUAAUAGACUACAGC` | SLC1A3 | 0.7912 |
| `AAACUCUUCUGAGUUGUCC` | ATXN2L | 0.01932 |
| `AAAGAAGUUAAGACGAGGC` | LOC646762 | 0.7497 |
| `AGUAUUGAAGGCAUCAUCC` | RAB10 | 0.757 |
| `UCCCGUUUAAUCUCAGUAG` | GULP1 | 0.3963 |
| `ACCAUUCUGGCGGUAAUGC` | NUDT14 | 0.317 |
| `UAGUGCGUGAGAUCAGAGG` | ATP2B4 | -0.2492 |
| `UAACCUAGAAUGAAGAGCA` | SLC44A4 | -0.2486 |
| `UUCAUGAUCUGAAUGGAGU` | RPL18A | -0.1939 |
| `UUACUUCCAAAUAGGUCUG` | MORN2 | -0.2425 |
| `AAAUGAGAUAGAUUGCAUG` | SHC1 | -0.759 |
| `UGAUUGCCUCCUGUAAUCC` | PGM3 | -0.6711 |
| `UCAGCUAUGACUGUCAGCU` | C1orf50 | -0.2111 |
| `UCAGUAUUCAAGAAGAGGG` | TMEM234 | -0.4978 |
| `UUUGUAUCCUUAACAUGUC` | PAXBP1 | -1.044 |
| `UUUGGAUCAGUCGAGCAGC` | MME | 0.3493 |
| `UUUAAUCAAAGUUACAAAC` | ZNF837 | 0.9691 |
| `UUUGAACUCUGCUUAAAUC` | BCR | 0.3545 |
| `AAAAAGACGGCUUCGUUGG` | NONO | 0.3422 |
| `ACACGUACCACAGUCUCUC` | FGF3 | -0.07538 |
| `AGAUAAAUUAUCCAAGUCU` | MTA3 | -0.6213 |
| `UGUGGAUGAAGCUUUCUGG` | MC1R | 0.6763 |
| `AUCCUCUUCAUUGCCGUCC` | YBX1P6 | -0.4072 |
| `UUUCGGAACAUCUAGGAAA` | NSFP1 | 0.7764 |
| `UAUGUCACCGGAAUCUCCU` | COLEC11 | 0.0485 |
| `AAGGCAGUGGGUGAGAUGC` | TSKU | -0.5075 |
| `AAUGAGAUAGACCAAACCC` | EMC4 | 1.96 |
| `UGAUAGAUCUGGAACAUGC` | DRD5 | -1.593 |
| `UACGGUAAAAUCCGAAGUG` | CDADC1 | 0.2806 |
| `UGUGAGUGAAGGUUGAUGG` | PKNOX2 | 1.461 |
| `UUUGUUUGUAAUAUACUGC` | NAT2 | 1.432 |
| `UUAAGGAUUGUCUAAAAGC` | ZNF91 | 0.04956 |
| `AUAGUGCAUGGUAUACACG` | OR2AG1 | -0.07064 |
| `UGCAUGUCAAUUUACAGUC` | SCUBE3 | -0.794 |
| `AAAGACUCAAGCCUCAUUG` | PTX3 | -0.1791 |
| `AUAGUUCCCACCAUCAUUC` | BMP2K | -0.3195 |
| `UUAGUAUUCCGCGGUAAGA` | CDSN | -0.3965 |
| `UCUUGUCCAAACAGCACUG` | IKBKE | -0.7162 |
| `UUCAUGUUCUCUUACACCC` | PHOSPHO2 | -0.4786 |
| `AAAUGGUGAGGCAAUAAGG` | MIR7-3HG | -0.5865 |
| `AAAUAAACCCAGGAUAGCC` | ALKBH1 | -0.7417 |
| `UAAUAGUAUGGGUCGAAGG` | SCN10A | -0.05676 |
| `UUCUCGUGACUGAGGAUGC` | LOC729164 | 0.6314 |
| `UGAUUACUAAUGCUGAUGC` | CXCL10 | 0.4698 |
| `ACACUUGGGAUCGCAGUUC` | LELP1 | 0.8713 |
| `UUGGUUUUCACCCGGACAC` | ODF2 | 0.534 |
| `UAUUGGACAGUGGGAAUCU` | PXMP4 | 0.06878 |
| `UCUGGUGUUAAUUAAACCA` | SYNDIG1 | 0.8343 |
| `UUACUCUUUUUACUUGUUC` | RSRC1 | 0.006106 |
| `UCAUUGUCCUCUGAAGGGU` | LRRC25 | -1.17 |
| `UCUCAUUUAAGGUCAUUCC` | UBE2W | -0.4387 |
| `UCCUGGACACCGAUCAUCC` | CABP5 | -0.09363 |
| `AGCAUUACCAUAUUUAUCA` | COX7B2 | 0.1969 |
| `UUCACAUGAGGUGUUAUUC` | SSU72P1 | -0.09284 |
| `GCCACUGCCAUAGCAAUUG` | LCE4A | 0.7895 |
| `UUACCCAAGACGAAGCAUC` | LOC541473 | 0.5582 |
| `UCACCAACCCAAGAAAUGC` | GABPA | -1.176 |
| `UUCAGGAUUCCGUAGGUGU` | SPATC1L | 0.4892 |
| `AAUGAUUUUCGAAAGCUGG` | USF2 | 0.5388 |
| `AGAUGUACAGGCUGUAGAC` | PISD | -0.7369 |

Some entries from above, unchanged:

siRNA,target gene,seed-corrected z-score
GCCACUGCCAUAGCAAUUG,LCE4A,0.7895
UGUGAGUGAAGGUUGAUGG,PKNOX2,1.461
AGUAUUGAAGGCAUCAUCC,RAB10,0.757
AGAUGUACAGGCUGUAGAC,PISD,-0.7369
UAACCUAGAAUGAAGAGCA,SLC44A4,-0.2486

Data taken from PubChem BioAssay AID1159506, deposited by NCATS (2015).